Like-named read-outs stand apart in the source and are kept apart here. At least one structure is not confirmed: it was looked up by name or label, or the drawing left a doubt.
What was measured:
Type in all cases: binding
[1] = molecular target: Marinobacter sp. msLacBP6 variant 187C, F68L, SEQ ID NO: 49, Acrylodan conjugate; assay: Fluorescence titration of conjugate (affinity tuning); details: read-out: appKd (pyruvate)
[2] = molecular target: Marinobacter sp. msLacBP6 variant 187C, L70I, SEQ ID NO: 52, Acrylodan conjugate; assay: as above; details: changes from a dichromatic to a monochromatic response; read-out: appKd (pyruvate)
[3] = system: Marinobacter sp. msLacBP6 variant 187C, F68L, SEQ ID NO: 49, Badan conjugate; assay: as above; design: key: nb: no binding
[4] = molecular target: Marinobacter sp. msLacBP6 variant W11C, Acrylodan conjugate; assay: Fluorescence titration of conjugate; details: λ1 473, λ2 520 nm
[5] = system: Marinobacter sp. msLacBP6 conjugates (variants of Table 5); assay: Affinity summary of msLacBP6 single-cysteine conjugates; details: relative to lactate, where measured
[6] = molecular target: Marinobacter sp. msLacBP6 variant 187C, D220E, SEQ ID NO: 56, Badan conjugate; assay: Fluorescence titration of conjugate (affinity tuning); details: read-out: appKd (pyruvate)
[7] = molecular target: Marinobacter sp. msLacBP6 variant 187C, L70I, SEQ ID NO: 52, Badan conjugate; assay: as above; details: changes from a dichromatic to a monochromatic response; read-out: appKd (pyruvate)
[8] = molecular target: Marinobacter sp. msLacBP6 variant 187C, D220E, SEQ ID NO: 56, Acrylodan conjugate; assay: as above; details: changes from a dichromatic to a monochromatic response; read-out: appKd (pyruvate)
[9] = molecular target: Marinobacter sp. msLacBP6 variant Y187C, C-terminal βZif fusion, SEQ ID NO: 61, Acrylodan and βZif 5IAF (Fluorescein) conjugate; assay: Fluorescence titration of doubly labeled conjugate (ngmFRET); details: λ1 452, λ2 520 nm
From the text: (§1) We tested whether non-geometrically modulated fluorescence energy transfer (ngmFRET) effects in doubly labeled proteins could improve ratiometric signaling. To this end, we fused a small, disulfide-containing domain, βZif (Smith et al., 2005, Protein Sci, 14, 64-73) to the C-terminus of msLacBP6 187C (Table 5). This arrangement enables independent, site-specific labeling with two different, thiol-reactive fluorophores by first reacting at the unprotected thiol in the msLacBP6, followed by a reduction of the […] disulfide to deprotect and label this second site with a second fluorophore. […] Indirectly responsive partners are selected according to their excitation and emission characteristics such that energy transfer is established between the two fluorophores. […] Mechanisms for non-geometrically modulated FRET (ngmFRET) effects are detailed in Materials and Methods and PCT International Patent Application No. PCT/US 16/62958, filed Nov. 19, 2016, the entire content of which is incorporated herein by reference.
(§2) In the Badan conjugates, the ngmFRET coupling was so strong that all the donor excited state energy was transferred to the acceptor, and the signal was converted from a dichromatic to a monochromatic response. In the Acrylodan conjugates, an improvement in the dichromatic signal was observed (FIG. 7).
(§3) Temperatures were advanced in 1K steps. […] Under these experimental photobleaching was not observed.

[10] = molecular target: Marinobacter sp. msLacBP6 variant Y187C, C-terminal βZif fusion, SEQ ID NO: 61, Acrylodan and βZif Alexa532 conjugate; assay: as above; details: λ1 452, λ2 550 nm
From the text: as §1, §2, §3

[11] = molecular target: Marinobacter sp. msLacBP6 variant 187C, F68M, SEQ ID NO: 50, Badan conjugate; assay: Fluorescence titration of conjugate (affinity tuning); details: changes from a dichromatic to a monochromatic response; read-out: appKd (pyruvate)
[12] = system: Marinobacter sp. msLacBP6 187C mutants (variants of Table 7); assay: Affinity summary of msLacBP6 187C affinity-tuning mutants; details: all mutants, relative to lactate
From the text: In the PCS we mutated F68 (F98 in ttLacBP1) and D220 (D250 in ttLacBP1). […] It could therefore be considered part of a secondary complementary surface layer (SCS). In the interface we mutated L70 (L100 in ttLacBP1), which is located at the periphery of the lactate-binding site, and forms a contact from the N- to the C-terminal domain across the inter-domain interface.
Both PCS and SCS mutations perturbed the spectral shapes of the lactate-mediated responses. […] These affinity-tuned sensors therefore provide a suitable set for clinical chemistry applications.

[13] = molecular target: Marinobacter sp. msLacBP6 variant 187C, F68M, SEQ ID NO: 50, Acrylodan conjugate; assay: Fluorescence titration of conjugate (affinity tuning); details: read-out: appKd (pyruvate)

With `CC(=O)C(=O)O` [pyruvate] the Kd [1] was 13 mM, the Kd [2] was 5.5 mM and the “appKd (pyruvate)” value [3] was “n/b”. For the same compound, the Kd ([4]; read-out: appKd (pyruvate)) was 2.6 mM, the Kd ([4]; read-out: trueKd (pyruvate)) was 2.8 mM and the discrimination against pyruvate [5] was 5-10 fold. The Kd [6] was 29 mM, the Kd [7] was 16.2 mM and the Kd [8] was 32 mM. For the same compound, the Kd ([9]; read-out: appKd (pyruvate)) was 8.2 mM, the Kd ([9]; read-out: trueKd (pyruvate)) was 11 mM and the Kd ([10]; read-out: appKd (pyruvate)) was 8.2 mM. The Kd ([10]; read-out: trueKd (pyruvate)) was 8.5 mM, the Kd [11] was 11 mM and the discrimination against pyruvate [12] was “at least 10 fold”. The Kd [13] was 9.2 mM.

— patent US11099176B2 (priority 2015, dated 2021)
